# Laboratory results reported in patent publication US8604042B2, “Bi-aryl meta-pyrimidine inhibitors of kinases” (TargeGen, Inc., priority 2005, dated 2013).
# Amino acid sequences for entries named in this document (tags omitted). Residues count along the entry.
# UniProt O60674, 808-1132 limits assumed: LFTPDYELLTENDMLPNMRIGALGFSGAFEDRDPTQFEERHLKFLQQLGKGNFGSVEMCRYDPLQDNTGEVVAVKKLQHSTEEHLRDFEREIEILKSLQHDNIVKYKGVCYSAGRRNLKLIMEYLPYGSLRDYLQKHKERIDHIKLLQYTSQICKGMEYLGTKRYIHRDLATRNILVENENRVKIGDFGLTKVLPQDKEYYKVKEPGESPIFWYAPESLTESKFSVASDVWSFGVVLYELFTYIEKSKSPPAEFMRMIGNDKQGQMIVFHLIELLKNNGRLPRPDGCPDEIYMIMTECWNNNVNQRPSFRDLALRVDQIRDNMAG
# Biological target: recombinant JAK2 (Homo sapiens, UniProt O60674)
# Experiment: IC50 value determinations for Jak2 kinase, luminescence-based kinase assay (Kinase-Glo)
# Format: biochemical
# Conditions: read-out: JAK2 (IC50)
# [1] = Table 9, SAR of the P2/P1 region
# [2] = Table 8, SAR of the P4 region, tested form: HCl
# [3] = Table 9, SAR of the P2/P1 region, tested form: HCl
smiles,measurement,setting,value
Cc1cnc(Nc2ccc(CN3CCN(C)CC3)cc2)nc1Nc1cccc(S(=O)(=O)NC(C)(C)C)c1,IC50,[1],29 nM
Cc1cnc(Nc2ccc(N3CCN(C)CC3)cc2)nc1Nc1ccc(Cl)c2[nH]ccc12,IC50,"Table 8, SAR of the P4 region",4 nM
Cc1cnc(Nc2ccc(N3CCN(C)CC3)cc2)nc1Nc1cccc(C2CCN(CCO)CC2)c1 [2-[4-(3-{5-Methyl-2-[4-(4-methyl-piperazin-1-yl)-phenylamino]-pyrimidin-4-ylamino}-phenyl)-piperidin-1-yl]-ethanol],IC50,"Table 8, SAR of the P4 region",8 nM
CC(=O)N1CCN(c2ccc(Nc3ncc(C)c(Nc4cccc(S(=O)(=O)NC(C)(C)C)c4)n3)cc2C(F)(F)F)CC1 [3-[(2-{[4-(4-acetylpiperazin-1-yl)-3-(trifluoromethyl)phenyl]amino}-5-methylpyrimidin-4-yl)amino]-N-tert-butylbenzenesulfonamide],IC50,[1],36 nM
"Cc1cnc(Nc2ccc(N3CCN(C)CC3)cc2)nc1Nc1ccc(C)c2[nH]ccc12 [5-methyl-N4-(7-methyl-1H-indol-4-yl)-N2-(4-(4-methylpiperazin-1-yl)phenyl)pyrimidine-2,4-diamine Hydrochloride]",IC50,[2],5 nM
"Cc1cnc(Nc2ccc(OCCN3CCCC3)cc2)nc1Nc1cccc2ccccc12 [N2-(4-(2-(pyrrolidin-1-yl)ethoxy)phenyl)-5-methyl-N4-(naphthalen-1-yl)pyrimidine-2,4-diamine Hydrochloride]",IC50,[2],20 nM
"Cc1cnc(Nc2ccc(N3CCN(C)CC3)cc2)nc1Nc1cccc2[nH]ccc12 [N4-(1H-indol-4-yl)-5-methyl-N2-(4-(4-methylpiperazin-1-yl)phenyl)pyrimidine-2,4-diamine Hydrochloride]",IC50,[2],9 nM
"Cc1cnc(Nc2ccc(N3CCN(C)CC3)cc2)nc1Nc1cccc2c1OCO2 [N4-Benzo[1,3]dioxol-4-yl-5-methyl-N2-[4-(4-methyl-piperazin-1-yl)-phenyl]-pyrimidine-2,4-diamine]",IC50,"Table 8, SAR of the P4 region",14 nM
"Cc1cnc(Nc2ccc(OCCN3CCCC3)cc2)nc1Nc1ccc2sccc2c1 [N4-Benzo[b]thiophen-5-yl-5-methyl-N2-[4-(2-pyrrolidin-1-yl-ethoxy)-phenyl]-pyrimidine-2,4-diamine]",IC50,"Table 8, SAR of the P4 region",28 nM
Cc1cnc(Nc2ccc(N3CCN(CCO)CC3)cc2)nc1Nc1cccc(S(=O)(=O)NC(C)(C)C)c1 [N-tert-Butyl-3-(2-{4-[4-(2-hydroxy-ethyl)-piperazin-1-yl]-phenylamino)-[5-methyl-pyrimidin-4-ylamino]-benzenesulfonamide Hydrochloride],IC50,[3],7 nM
Cc1cnc(Nc2cccc(CN3CCOCC3)c2)nc1Nc1cccc(S(=O)(=O)NC(C)(C)C)c1 [N-tert-Butyl-3-(5-methyl-2-(3-morpholin-4-ylmethyl-phenylamino)-pyrimidin-4-ylamino]-benzenesulfonamide],IC50,[3],7 nM
Cc1cnc(Nc2ccc(OC3CCNCC3)cc2)nc1Nc1cccc(S(=O)(=O)NC(C)(C)C)c1 [N-tert-Butyl-3-(5-methyl-2-[4-(piperidin-4-yloxy)-phenylamino]-pyrimidin-4-ylamino}-benzenesulfonamide],IC50,[1],7 nM
Cc1cnc(Nc2ccc(N3CCOCC3)cc2)nc1Nc1cccc(S(=O)(=O)NC(C)(C)C)c1 [N-tert-Butyl-3-[5-methyl-2-(4-morpholin-4-yl-phenylamino)-pyrimidin-4-ylamino]-benzenesulfonamide],IC50,[1],12 nM
Cc1cnc(Nc2ccc(CN3CCOCC3)cc2)nc1Nc1cccc(S(=O)(=O)NC(C)(C)C)c1 [N-tert-Butyl-3-[5-methyl-2-(4-morpholin-4-ylmethyl-phenylamino)-pyrimidin-4-ylamino]-benzenesulfonamide],IC50,[1],13 nM
Cc1cnc(Nc2ccc(N3CCNCC3)cc2)nc1Nc1cccc(S(=O)(=O)NC(C)(C)C)c1 [N-tert-Butyl-3-[5-methyl-2-(4-piperazin-1-yl-phenylamino)-pyrimidin-4-ylamino]-benzenesulfonamide Hydrochloride],IC50,[3],8 nM
Cc1cnc(Nc2ccc(Cn3cccn3)cc2)nc1Nc1cccc(S(=O)(=O)NC(C)(C)C)c1 [N-tert-Butyl-3-[5-methyl-2-(4-pyrazol-1-ylmethyl-phenylamino)-pyrimidin-4-ylamino]-benzenesulfonamide],IC50,[1],18 nM
Cc1cnc(Nc2ccc(N3CCNCC3)nc2)nc1Nc1cccc(S(=O)(=O)NC(C)(C)C)c1 [N-tert-Butyl-3-[5-methyl-2-(6-piperazin-1-yl-pyridin-3-ylamino)-pyrimidin-4-ylamino]-benzenesulfonamide],IC50,[1],10 nM
Cc1cnc(Nc2ccc(Cn3ccnc3C)cc2)nc1Nc1cccc(S(=O)(=O)NC(C)(C)C)c1 [N-tert-Butyl-3-{5-methyl-2-[4-(2-methyl-imidazol-1-ylmethyl)-phenylamino]-pyrimidin-4-ylamino}-benzenesulfonamide],IC50,[1],22 nM

# Structures can show the parent of a compound that is named as a salt. Where two headings read alike, the source gives them in different places. The structures given here were assigned with low confidence; some may be wrong.
